Sequences of proteins named here, by UniProt entry; tags and fusion partners are left off. A change or cut given only in a name is not applied to a line headed by its entry.
UniProt P15428: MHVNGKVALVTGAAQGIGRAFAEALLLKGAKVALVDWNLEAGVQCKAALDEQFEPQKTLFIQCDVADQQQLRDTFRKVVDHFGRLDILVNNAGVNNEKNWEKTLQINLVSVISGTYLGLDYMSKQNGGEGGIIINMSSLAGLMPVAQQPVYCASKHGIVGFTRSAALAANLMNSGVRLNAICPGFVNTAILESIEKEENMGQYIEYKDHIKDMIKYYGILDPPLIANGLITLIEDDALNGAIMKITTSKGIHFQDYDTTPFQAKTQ

The inconclusive results got no clear call from the source; some entries with a clear call stand among them for comparison. Where the call is inconclusive, the potency comes from a doubtful curve fit. Calls of active or inactive are those of the source. Calls come from the whole dose curve.
These compounds were tested against 15-hydroxyprostaglandin dehydrogenase [NAD(+)] (Homo sapiens) (UniProt P15428) (assay: Confirmation qHTS Assay for Inhibitors of HPGD (15-Hydroxyprostaglandin Dehydrogenase)). Conditions: recombinant HPGD, NADH fluorescence, PGE2 substrate; series mostly up to 57.1 µM.
Excerpt: Assay Overview: Human 15-Hydroxyprostaglandin dehydrogenase (HPGD) catalyzes the inactivation of prostaglandin E2, and plays a major role in cancer biology by antagonizing the oncogenic potential of cyclooxygenase type 2 (COX2). Assays are available, based on absorbance/fluorescence increase of NADH with the substrate 15-OH prostaglandin E2. Inhibition of HPGD activity was screened by utilizing prostaglandin as an electron donor and NAD+ as an electron acceptor/cofactor. An increase in the fluorescence intensity due to conversion of NAD+ to NADH was used to measure the enzyme activity. This assay is a confirmation screen of primary qHTS protocol (See AID 894). References 1. Myung SJ, Rerko RM, Yan M, Platzer P, Guda K, Dotson A, Lawrence E, Dannenberg AJ, Lovgren AK, Luo G, Pretlow TP, Newman RA, Willis J, Dawson D, Markowitz SD. 15-Hydroxyprostaglandin dehydrogenase is an in vivo suppressor of colon tumorigenesis. Proc Natl Acad Sci U S A. 2006 Aug 8;103(32):12098-102. 2. Yan M, Rerko RM, Platzer P, Dawson D, Willis J, Tong M, Lawrence E, Lutterbaugh J, Lu S, Willson JK, Luo G, Hensold J, Tai HH, Wilson K, Markowitz SD. 15-Hydroxyprostaglandin dehydrogenase, a COX-2 oncogene antagonist, is a TGF-beta-induced suppressor of human gastrointestinal cancers. Proc Natl Acad Sci U S A. 2004 Dec 14;101(50):17468-73. 3. Yang L, Amann JM, Kikuchi T, Porta R, Guix M, Gonzalez A, Park KH, Billheimer D, Arteaga CL, Tai HH, Dubois R, Carbone DP, Johnson DH. Inhibition of Epidermal Growth Factor Receptor Signaling Elevates 15-Hydroxyprostaglandin Dehydrogenase in Non-Small-Cell Lung Cancer. Cancer Res. 2007 Jun 15;67(12):5587-5593. NIH Chemical Genomics Center [NCGC] Structural Genomics Consortium [SGC]
Buffer: 50 mM Tris-HCl, 0.01% Tween 20, pH 8. Enzyme Buffer: 50 mM Tris-HCl, 0.5 mM NAD+ and 0.01% Tween 20, pH 8. Reagents/Controls: Buffer in columns 3 and 4 as negative control (no enzyme). Substrate/cofactor solution: 1 mM NAD+ and 30 uM prostaglandin (Sigma, prostaglandin E2, # P5640) final concentrations dispensed throughout the plate. Enzyme: 20 nM HPGD final concentration in columns 1, 2, 5-48. Column 1 and 2 is neutral (100% activity). A titration of control inhibitor GW5074 (G6416 Sigma-Aldrich, St. Louis, MO) top concentration 10 mM in DMSO, then 1:2 dilution for a total of 16 concentrations in duplicate) was pin-transferred into column 2. Assay Steps: Three uL of enzyme were dispensed to 1536-well Greiner black solid bottom plates. Compounds and control inhibitor (23 nL) were transferred via Kalypsys PinTool. The plates were incubated for 15 min at room temperature, and then 1 uL of substrate/cofactor solution was added to start the reaction. The plates were immediately transferred to and read 5 times every 30 seconds on ViewLux High-throughput CCD imager (Perkin-Elmer) using 360 nm excitation and 450 nm emission fluorescence protocol. The fluorescence intensity difference between the last and the first time points was used to compute reaction progress.
In the case of `COc1ccc(N2CCN(C(=O)c3ccc(CSc4ccccc4)cc3)CC2)cc1`, the Potency is reported as “inactive”.
For `Cc1ccc(S(=O)(=O)N(C)c2ccc(C(=O)N3CCC(C(N)=O)CC3)cc2)cc1`, the Potency was inconclusive: 15.8 µM [inhibitor, partial curve].
With `O=C(c1ccc2c(=O)n(Cc3ccc4c(c3)OCO4)c(=S)[nH]c2c1)N1CCCCC1` the Potency was inconclusive: 0.708 µM [inhibitor, full curve].
With `O=C(CCc1ccc(Oc2cc([N+](=O)[O-])cc([N+](=O)[O-])c2)cc1)N1CCCCCC1` the Potency was active: 0.398 µM.
With `COC(=O)CSc1nc2nc(C)c(Br)cc2[nH]1` the Potency was inconclusive: 15.8 µM [inhibitor, partial curve].
For `CCNC(=O)c1ccc(CSc2ccc(Cl)cc2)cc1`, the Potency was inconclusive: 3.98 µM [inhibitor, full curve, poor fit].

— PubChem BioAssay AID2429 (National Center for Advancing Translational Sciences (NCATS), 2010)
